# Experimental data reported in paper PMC10093845, “Inhibitory Activities of Samples on Tyrosinases Were Affected by Enzyme Species and Sample Addition Methods” (International Journal of Molecular Sciences, 2023).
# Tested on: fresh-cut apple slices
# Experiment: Chromatic aberration of fresh-cut apple slices soaked by samples
# Settings: soaked in 1 mM for 10 min, observed 0.17–24.17 h
row,SMILES,inhibition of browning of apple slices
1,OC[C@H]1O[C@@H](Oc2ccc(O)cc2)[C@H](O)[C@@H](O)[C@@H]1O [β-arbutin],reduce apple slices browning to some extent
2,O=c1cc(CO)occ1O [kojic acid],reduce apple slices browning to some extent
